Values quoted from earlier work in patent publication US20250268917A1, “PHARMACEUTICAL COMPOSITIONS AND METHODS FOR PREVENTION AND/OR TREATMENT OF INFLAMMATION” (REVEN PHARMACEUTICALS INC., priority 2020, published 2025).
At least one compound was matched to its structure with a doubt left.

Conditions: equivalent to dexamethasone 0.75 mg; cited from earlier work

C[C@@H]1C[C@H]2[C@@H]3CCC4=CC(=O)C=C[C@]4(C)[C@@]3(F)[C@@H](O)C[C@]2(C)[C@@]1(O)C(=O)CO [DEX, dexamethasone]
Approximate Equivalent Dose: 0.75 mg

C[C@H]1C[C@@H]2[C@H]([C@@H](O)C[C@@]3(C)[C@H]2CC[C@]3(O)C(=O)CO)[C@@]2(C)C=CC(=O)C=C12 [Methylprednisolone]
Approximate Equivalent Dose: 4 mg
